Data on one substance can be found in publication PMC5297841.

Chains of the proteins cited; added tags and fusions are not shown. Residues count along the entry.
UniProt P35613, residues 346-385: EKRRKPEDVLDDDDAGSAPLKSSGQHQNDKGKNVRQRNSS

The target in one experiment is eGFP-C2-ICD (human) (UniProt P35613). The experiment can be described thus: co-IP; eGFP-C2-ICD (ICD-GFP) overexpressed in SMMC-7721 cells for 36 h; lysate on coupling resin pre-bound with GFP antibody; Western blot. Background: Immunoblotting shows a protein as a band on a membrane.
Another experiment deals with GST-CD147-ICD (human) (UniProt P35613). The experiment can be described thus: pull-down; 20 ug GST-CD147-ICD or GST pre-bound to coupling resin; lysate of 1 x 10^7 cells (cell line not given); eluate analysed by Western blot for FBXO22; only the target purified.

These are yes or no findings as the source states them, for the method shown. Binding seen in cells or lysates may run through a third protein. Some binding calls cover weakened binding; strength is not graded here.

As for FBXO22 (from UniProt Q8NEZ5-1 1-403), the binding result with eGFP-C2-ICD (human) and with GST-CD147-ICD (human) was “binds” throughout.
